PubChem BioAssay AID1508597, Cure First | 2020
This is an unselected part of the about 2,100 reagents, under one of the conditions tested. 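Calls flag viability under 80% in either arm, not effects specific to rucaparib; the reference for percent is not stated.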 A reagent listed more than once was tested more than once; the source does not tell the runs apart. Not stated in the record: the 100% reference.

Test: 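Genes whose silencing sensitises or protects ovarian cancer cells against rucaparib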 (primary screen)
Cell system: human ovarian carcinoma lines grown from tumours: OCI-P5x (papillary serous) and OCI-C5x (clear cell)
Reagent: siRNA pool against human genes, 1.25 pmol siRNA per well
Timing: 72 h or 96 h, depending on the cell culture
Challenge: rucaparib 20 µM (about IC30) or vehicle, present until read-out
Rucaparib or vehicle: Rucaparib
Cell line: OCI-P5x (serous)
Measurement: 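ATP luminescence measured at 72 or 96 h according to the culture, then normalised and expressed as percent viability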
Scale: viability, normalised: higher = more viable cells remaining
Hit rule: 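a well counts as a hit if its normalised viability is under 80 percent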
Meaning of the calls: active = viability under 80%; inactive = viability 80% or more

| gene | technical replicate | viability, normalised (%) | call |
| --- | --- | --- | --- |
| MED19 (mediator complex subunit 19) | 1 | 53.6 | active |
| MED19 (mediator complex subunit 19) | 2 | 57 | active |
| MED19 (mediator complex subunit 19) | 3 | 51.2 | active |
| TGFBR1 (transforming growth factor beta receptor 1) | 1 | 119 | inactive |
| TGFBR1 (transforming growth factor beta receptor 1) | 2 | 109 | inactive |
| TGFBR1 (transforming growth factor beta receptor 1) | 3 | 99.7 | inactive |
| CHMP5 (charged multivesicular body protein 5) | 1 | 66.8 | active |
| CHMP5 (charged multivesicular body protein 5) | 2 | 39 | active |
| CHMP5 (charged multivesicular body protein 5) | 3 | 58.7 | active |
| MELK (maternal embryonic leucine zipper kinase) | 1 | 63 | active |
| MELK (maternal embryonic leucine zipper kinase) | 2 | 61 | active |
| MELK (maternal embryonic leucine zipper kinase) | 3 | 58.2 | active |
| WRNIP1 (WRN helicase interacting protein 1) | 1 | 89.7 | inactive |
| WRNIP1 (WRN helicase interacting protein 1) | 2 | 75.6 | active |
| WRNIP1 (WRN helicase interacting protein 1) | 3 | 64.5 | active |
| EDF1 (endothelial differentiation related factor 1) | 1 | 54 | active |
| EDF1 (endothelial differentiation related factor 1) | 2 | 48.6 | active |
| EDF1 (endothelial differentiation related factor 1) | 3 | 66.4 | active |
| GCKR (glucokinase regulator) | 1 | 49.4 | active |
| GCKR (glucokinase regulator) | 2 | 47.2 | active |
| GCKR (glucokinase regulator) | 3 | 42.3 | active |
| SMARCA1 (SNF2 related chromatin remodeling ATPase 1) | 1 | 45.6 | active |
| SMARCA1 (SNF2 related chromatin remodeling ATPase 1) | 2 | 53.9 | active |
| SMARCA1 (SNF2 related chromatin remodeling ATPase 1) | 3 | 49 | active |
| PRKN (parkin RBR E3 ubiquitin protein ligase) | 1 | 77.9 | active |
| PRKN (parkin RBR E3 ubiquitin protein ligase) | 2 | 68.2 | active |
| PRKN (parkin RBR E3 ubiquitin protein ligase) | 3 | 66.1 | active |
| HHEX (hematopoietically expressed homeobox) | 1 | 76.8 | active |
| HHEX (hematopoietically expressed homeobox) | 2 | 70.8 | active |
| HHEX (hematopoietically expressed homeobox) | 3 | 78.6 | active |
| NADK (NAD kinase) | 1 | 68 | active |
| NADK (NAD kinase) | 2 | 66.7 | active |
| NADK (NAD kinase) | 3 | 61.3 | active |
| NRK (Nik related kinase) | 1 | 82.9 | inactive |
| NRK (Nik related kinase) | 2 | 76.5 | active |
| NRK (Nik related kinase) | 3 | 80.6 | inactive |
| DYRK1B | 1 | 81.3 | inactive |
| DYRK1B | 2 | 86.3 | inactive |
| DYRK1B | 3 | 75 | active |

Continued, starting with the last 2 of the part before.
| gene | technical replicate | viability, normalised (%) | call |
| --- | --- | --- | --- |
| DYRK1B | 2 | 86.3 | inactive |
| DYRK1B | 3 | 75 | active |
| BLM (BLM RecQ like helicase) | 1 | 55 | active |
| BLM (BLM RecQ like helicase) | 1 | 164 | inactive |
| BLM (BLM RecQ like helicase) | 2 | 57 | active |
| BLM (BLM RecQ like helicase) | 2 | 158 | inactive |
| BLM (BLM RecQ like helicase) | 3 | 56.4 | active |
| BLM (BLM RecQ like helicase) | 3 | 155 | inactive |
| MUC16 (mucin 16, cell surface associated) | 1 | 66.3 | active |
| MUC16 (mucin 16, cell surface associated) | 2 | 58.1 | active |
| MUC16 (mucin 16, cell surface associated) | 3 | 85.6 | inactive |
| L3MBTL3 (L3MBTL histone methyl-lysine binding protein 3) | 1 | 67.1 | active |
| L3MBTL3 (L3MBTL histone methyl-lysine binding protein 3) | 2 | 64.2 | active |
| L3MBTL3 (L3MBTL histone methyl-lysine binding protein 3) | 3 | 73.3 | active |
| DHX9 (DExH-box helicase 9) | 1 | 59 | active |
| DHX9 (DExH-box helicase 9) | 1 | 66.5 | active |
| DHX9 (DExH-box helicase 9) | 2 | 90.9 | inactive |
| DHX9 (DExH-box helicase 9) | 2 | 54.2 | active |
| DHX9 (DExH-box helicase 9) | 3 | 81.2 | inactive |
| DHX9 (DExH-box helicase 9) | 3 | 51.8 | active |
| DUSP1 (dual specificity phosphatase 1) | 1 | 66.4 | active |
| DUSP1 (dual specificity phosphatase 1) | 2 | 65 | active |
| DUSP1 (dual specificity phosphatase 1) | 3 | 71.4 | active |
| BCL10 (BCL10 immune signaling adaptor) | 1 | 69.1 | active |
| BCL10 (BCL10 immune signaling adaptor) | 2 | 75.4 | active |
| BCL10 (BCL10 immune signaling adaptor) | 3 | 73.9 | active |
| PIP4K2C (phosphatidylinositol-5-phosphate 4-kinase type 2 gamma) | 1 | 88.3 | inactive |
| PIP4K2C (phosphatidylinositol-5-phosphate 4-kinase type 2 gamma) | 2 | 84.7 | inactive |
| PIP4K2C (phosphatidylinositol-5-phosphate 4-kinase type 2 gamma) | 3 | 81.4 | inactive |
| RPA2 (replication protein A2) | 1 | 67.7 | active |
| RPA2 (replication protein A2) | 2 | 74.7 | active |
| RPA2 (replication protein A2) | 3 | 75.1 | active |
| MED28 (mediator complex subunit 28) | 1 | 60.3 | active |
| MED28 (mediator complex subunit 28) | 2 | 69.4 | active |
| MED28 (mediator complex subunit 28) | 3 | 78.9 | active |
| TOP1 (DNA topoisomerase I) | 1 | 75.9 | active |
| TOP1 (DNA topoisomerase I) | 2 | 56.8 | active |
| TOP1 (DNA topoisomerase I) | 3 | 66 | active |
